Data source: PubChem BioAssay AID720505 (Drosophila RNAi Screening Center, 2013)
Purpose: 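Knock-downs that reduce calcium influx once internal stores are emptied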 (primary screen). Cells: Drosophila S2R+ cells. Reagents: long dsRNA against Drosophila genes. Challenge: thapsigargin (2 µM) in calcium-free buffer to empty internal stores, then 2 mM calcium added back. Detection: 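Stores emptied by 2 µM thapsigargin without calcium, then 2 mM calcium re-added; fluo-4 fluorescence followed by FLIPR in 384-well plates, per-well averaged endpoint, raw; two screen passes, some wells retested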. Scale: calcium signal: higher = more calcium entry after store depletion. Hit rule: 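Knock-downs counted as hits when calcium entry dropped relative to STIM1 positive and Rho1 negative controls present on each plate; roughly 1500 genes called, with reductions of differing size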. Calls: active = called as lowering calcium entry; inactive = not called.
The deposit covers about 20,000 reagents; below is a random part of those that have a named target and a result. Of all reagents, about 2,100 (10%) are marked active. 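Raw plate signals without normalisation; calls rest on control-based scores that were not deposited; replicate 2 separates called from uncalled poorly.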 Entries without a mark were called inactive. The numbers tell different reagents against one gene apart. A plus sign joins genes that one reagent is predicted to hit. Not given: the amount of reagent, the time to read-out.

After knock-down of CG34282, the record shows calcium signal, replicate 1 = 129; calcium signal, replicate 2 = 120. Knock-down of CG18558 #1 resulted in: calcium signal, replicate 1 = 205; calcium signal, replicate 2 = 127. Against CG18558 #2 the deposit lists calcium signal, replicate 1 = 139; calcium signal, replicate 2 = 96.5. With knock-down of CG11668, the record shows calcium signal, replicate 1 = 89.7; calcium signal, replicate 2 = 119. Silencing of Cwc25 came out at: calcium signal, replicate 1 = 141; calcium signal, replicate 2 = 111. Against CG13442 the deposit lists calcium signal, replicate 1 = 85.1; calcium signal, replicate 2 = 72.1.

After knock-down of Parg, the screen gave calcium signal, replicate 1 = 103; calcium signal, replicate 2 = 156. Against Tsp42En, the entry reads calcium signal, replicate 1 = 99.4; calcium signal, replicate 2 = 138. Knock-down of Akr1B gave: calcium signal, replicate 1 = 104; calcium signal, replicate 2 = 152. For CG16964, the entry reads calcium signal, replicate 1 = 90.8; calcium signal, replicate 2 = 97.9. CG15653 showed calcium signal, replicate 1 = 71.4; calcium signal, replicate 2 = 174. After knock-down of snsl the results were calcium signal, replicate 1 = 189; calcium signal, replicate 2 = 113.

After knock-down of RhoGAP100F, the screen gave calcium signal, replicate 1 = 122; calcium signal, replicate 2 = 133. Cyp6a2 gave calcium signal, replicate 1 = 116; calcium signal, replicate 2 = 161. CG14104 scored calcium signal, replicate 1 = 104; calcium signal, replicate 2 = 92.5. With knock-down of Trf, the screen gave calcium signal, replicate 1 = 170; calcium signal, replicate 2 = 178. CG1827 showed calcium signal, replicate 1 = 125; calcium signal, replicate 2 = 125. For CG31897, the values are calcium signal, replicate 1 = 186; calcium signal, replicate 2 = 85.

After knock-down of CG17562, the screen gave calcium signal, replicate 1 = 103; calcium signal, replicate 2 = 91.3. Silencing of TH1 came out at: calcium signal, replicate 1 = 125; calcium signal, replicate 2 = 136. Silencing of CG7724 resulted in: calcium signal, replicate 1 = 97.3; calcium signal, replicate 2 = 91.7. After knock-down of ovm + CG31975, the record shows calcium signal, replicate 1 = 109; calcium signal, replicate 2 = 151. Knock-down of lbm resulted in: calcium signal, replicate 1 = 103; calcium signal, replicate 2 = 88.1. After knock-down of CR32821 + CR43381 + CR43377 + 1 more, the record shows calcium signal, replicate 1 = 83; calcium signal, replicate 2 = 157.

Against Dph4, the entry reads calcium signal, replicate 1 = 177; calcium signal, replicate 2 = 177. After knock-down of trv #1 the results were calcium signal, replicate 1 = 185; calcium signal, replicate 2 = 174. Silencing of trv #2 resulted in: calcium signal, replicate 1 = 195; calcium signal, replicate 2 = 179. trv #3 gave calcium signal, replicate 1 = 193; calcium signal, replicate 2 = 146. After knock-down of GAA1, the screen gave calcium signal, replicate 1 = 144; calcium signal, replicate 2 = 87.4. Knock-down of CG5727 gave: calcium signal, replicate 1 = 125; calcium signal, replicate 2 = 101.

SoYb showed calcium signal, replicate 1 = 68.8; calcium signal, replicate 2 = 131. Silencing of CG32086 gave: calcium signal, replicate 1 = 113; calcium signal, replicate 2 = 97. Knock-down of CG30371 resulted in: calcium signal, replicate 1 = 109; calcium signal, replicate 2 = 135. For CG3301 the deposit lists calcium signal, replicate 1 = 220; calcium signal, replicate 2 = 392. ppk26 scored calcium signal, replicate 1 = 62; calcium signal, replicate 2 = 92.4.
